According to PMC11499603:
Results are given in words; binding and its absence hold for the method and conditions named. In cells and extracts the contact can be indirect. Some entries that bind do so weakly or less than the wild type.

Molecular target: EGFR (human (endogenous in H520)) (UniProt P00533)
Assay: co-IP; Protein A/G magnetic beads IP kit, lysates of H520 stable cell lines (H520^VASH2, H520^VASH2-mut) after 20 ng/mL EGF stimulation; rabbit IgG as negative control; western blotting

binding: binds
B1: kinesin family member 3C (protein, UniProt O14782 1-793)
chain: MASKTKASEALKVVARCRPLSRKEEAAGHEQILTMDVKLGQVTLRNPRAAPGELPKTFTFDAVYDASSKQADLYDETVRPLIDSVLQGFNGTVFAYGQTGTGKTYTMQGTWVEPELRGVIPNAFEHIFTHISRSQNQQYLVRASYLEIYQEEIRDLLSKEPGKRLELKENPETGVYIKDLSSFVTKNVKEIEHVMNLGNQTRAVGSTHMNEVSSRSHAIFIITVECSERGSDGQDHIRVGKLNLVDLAGSERQNKAGPNTAGGAATPSSGGGGGGGGSGGGAGGERPKEASKINLSLSALGNVIAALAGNRSTHIPYRDSKLTRLLQDSLGGNAKTIMVATLGPASHSYDESLSTLRFANRAKNIKNKPRVNEDPKDTLLREFQEEIARLKAQLEKRGMLGKRPRRKSSRRKKAVSAPPGYPEGPVIEAWVAEEEDDNNNNHRPPQPILESALEKNMENYLQEQKERLEEEKAAIQDDRSLVSEEKQKLLEEKEKMLEDLRREQQATELLAAKYKAMESKLLIGGRNIMDHTNEQQKMLELKRQEIAEQKRREREMQQEMMLRDEETMELRGTYTSLQQEVEVKTKKLKKLYAKLQAVKAEIQDQHDEYIRVRQDLEEAQNEQTRELKLKYLIIENFIPPEEKNKIMNRLFLDCEEEQWKFQPLVPAGVSSSQMKKRPTSAVGYKRPISQYARVAMAMGSHPRYRAENIMFLELDVSPPAVFEMEFSHDQEQDPRALHMERLMRLDSFLERPSTSKVRKSRSWCQSPQRPPPSTTHASLASASLRPATVADHE
